For this assay, the system named is RAW 264.7. Nature of the assay: cell viability (MTT) relative to vehicle control; higher = more viable cells. The settings on record: stimulus: HMGB1 5 ug/ml, 18 h.
The mark [1] stands for this setting: compound concentration: 1 ug/ml.

SMILES strings stand for the structures. Structures can show the parent of a compound that is named as a salt. ± gives the standard deviation of the averaged measurements. The list shows a part of the results. Single values are uncertain, as repeats are few or missing.

Take `CC(C)(CO)[C@@H](O)C(=O)NCCCO` (racemic) [D-Panthenol; dl-form as vitamin]: under setting [1], the cell viability (commonly a read-out of living cells in per cent, often relative to untreated cells) amounted to 98.8%.

On to `CC(C)(CO)[C@@H](O)C(=O)NCCCO`, for which, under “compound concentration: 3 uM”, the cell viability was 116%. With `CNC[C@H](O)c1cccc(O)c1`, the cell viability (compound concentration: 3 uM) came to 107%. On to `CNC[C@H](O)c1cccc(O)c1` [Phenylephrine hydrochloride], for which the cell viability (compound concentration: 3 uM) was 98.2%. With `CC(=O)NNC(=O)N1Cc2ccccc2Oc2ccc(Cl)cc21`, the cell viability (compound concentration: 3 uM) was found to be 119%. For the molecule `CCN(CC)CCNC(=O)c1ccc(NC(C)=O)cc1`, the cell viability (compound concentration: 3 uM) worked out at 102%.

`CCN(CC)CCNC(=O)c1ccc(NC(C)=O)cc1` [N-Acetylprocainamide hydrochloride]: the cell viability (compound concentration: 3 uM) amounted to 105%. In the case of `CCCCCCN(CCCCCC)C(=O)Cc1c(-c2ccc(F)cc2)[nH]c2ccccc12` [N,N-Dihexyl-2-(4-fluorophenyl)indole-3-acetamide], for the setting “compound concentration: 3 uM”, the cell viability was 98.8%. As for `CCC(=O)NS(=O)(=O)c1ccc(-c2c(-c3ccccc3)noc2C)cc1`, the cell viability (compound concentration: 3 uM) stood at 93%. For the molecule `[Cl-].[Li+]` [Lithium Chloride], the cell viability (compound concentration: 3 uM) was determined as 104%. Take `NC(Cc1c[nH]c2cc(F)ccc12)C(=O)O` (racemic) [6-Fluoro-DL-tryptophan]: under setting [1], the cell viability came out at 113%. `CCN(CC)CCCC(C)Nc1ccnc2cc(Cl)ccc12` (stereo unspecified) [Chloroquine]: the cell viability (compound concentration: 3 uM) stood at 101%. In the case of `CCN(CC)CCCC(C)Nc1ccnc2cc(Cl)ccc12` (stereo unspecified) [Chloroquine diphosphate], the cell viability (compound concentration: 3 uM) came out at 96.6 ± 4.7%.

On to `CCN(CC)CCCC(C)Nc1ccnc2cc(Cl)ccc12` (stereo unspecified), for which the cell viability (compound concentration: 3 uM) was found to be 105 ± 7.9%.

As to `CS(=O)(=O)c1ccc([C@@H](O)[C@@H](CF)NC(=O)C(Cl)Cl)cc1` [Florfenicol], the cell viability (compound concentration: 3 uM) turned out to be 112 ± 7.1%. Same read-out and setting: in the case of `CS(=O)(=O)c1ccc([C@@H](O)[C@@H](CF)NC(=O)C(Cl)Cl)cc1` it was 96.7%; in that of `CC(C)NCC(O)COc1cccc2ccccc12` (racemic), 107%; in that of `CC(C)NCC(O)COc1cccc2ccccc12` (racemic) [(±)-Propranolol hydrochloride], 103%.

`C[C@](N)(Cc1ccc(O)cc1)C(=O)O` [L-alpha-Methyl-p-tyrosine]: where the note is “compound concentration: 3 uM”, the cell viability worked out at 117%. Take `CNCCNS(=O)(=O)c1cccc2cnccc12` [H-8 dihydrochloride]: under “compound concentration: 3 uM”, the cell viability stood at 117%. For the molecule `CCNC(=O)[C@H]1O[C@@H](n2cnc3c(N)nc(NCCc4ccc(CCC(=O)O)cc4)nc32)[C@H](O)[C@@H]1O`, the cell viability (compound concentration: 3 uM) was 113%. For the molecule `Cc1cccc(C)c1NC(=O)c1ccccc1C(=O)O`, the cell viability (compound concentration: 3 uM) amounted to 112%. For the molecule `C=C(CC)C(=O)c1ccc(OCC(=O)O)c(Cl)c1Cl`, for the setting “compound concentration: 3 uM”, the cell viability is 96.2%. Consider `C=C(CC)C(=O)c1ccc(OCC(=O)O)c(Cl)c1Cl` [Ethacrynic acid], for which, where the note is “compound concentration: 3 uM”, the cell viability was 97.7%. Take `C=C(CC)C(=O)c1ccc(OCC(=O)O)c(Cl)c1Cl` [Ethacrynic Acid]: the cell viability (compound concentration: 3 uM) worked out at 107%. Still for that read-out and setting: to `CC(C)c1nc(N(C)S(C)(=O)=O)nc(-c2ccc(F)cc2)c1/C=C/[C@@H](O)C[C@@H](O)CC(=O)O` belongs 110%; to `C[N+](C)(C)CCOP(=O)(O)OP(=O)([O-])OC[C@H]1O[C@@H](n2ccc(N)nc2=O)[C@H](O)[C@@H]1O`, 105%; to `C[N+](C)(C)CCOP(=O)(O)OP(=O)([O-])OC[C@H]1O[C@@H](n2ccc(N)nc2=O)[C@H](O)[C@@H]1O` [Cytidine 5'-diphosphocholine sodium salt hydrate], 94.5%. The same measure, in the same setting: to `Nc1ccc(S(=O)(=O)NC(=O)c2ccccc2)cc1` [Sulfabenzamide] belongs 105%; to `Nc1ccc(S(=O)(=O)NC(=O)c2ccccc2)cc1`, 101%; to `CCCCCN(C)CCC(O)(P(=O)(O)O)P(=O)(O)O` [Ibandronate], 106 ± 8.2%. For `CCCCCN(C)CCC(O)(P(=O)(O)O)P(=O)(O)O` [Ibandronate sodium], under “compound concentration: 3 uM”, the cell viability is 129%. For the molecule `O=C(O)C1=C[C@@H](O)[C@@H](O)[C@H](O)C1` [Shikimic acid], the cell viability under setting [1] worked out at 103%. Consider `C1N2CN3CN1CN(C2)C3`, for which, for the setting “compound concentration: 3 uM”, the cell viability is 97.3%. `C1N2CN3CN1CN(C2)C3` [Methenamine]: the cell viability (compound concentration: 3 uM) worked out at 99.2%. The same measure, in the same setting: to `O=C1NCCN1c1ncc([N+](=O)[O-])s1` [Niridazole] belongs 117%; to `Nc1ncnc2c1ncn2[C@@H]1O[C@H](CO)C[C@@H]1O` [3'-deoxydenosine], 96%; to `CN=c1nc(-c2ccccc2)n(-c2ccccc2)s1`, 116%. Regarding `O=c1ccc2cc3ccoc3cc2o1` [Psoralen], the cell viability under setting [1] was 91.9%.

Regarding `c1ccc2c(c1)CCCC2C1=NCCN1` (stereo unspecified) [Tetrahydrozoline hydrochloride], the cell viability (compound concentration: 3 uM) was found to be 112 ± 2.9%.

As for `c1ccc2c(c1)CCCC2C1=NCCN1` (stereo unspecified), the cell viability (compound concentration: 3 uM) was 103%. As for `C[C@@H](O)[C@H]1C(=O)N2C(C(=O)O)=C(SCCNC=N)C[C@H]12` [Imipenem monohydrate], the cell viability (compound concentration: 3 uM) is 101%. On to `C[C@@H](O)[C@H]1C(=O)N2C(C(=O)O)=C(SCCNC=N)C[C@H]12` [Imipenem], for which the cell viability (compound concentration: 3 uM) stood at 110 ± 12%. Consider `CCCCN1C[C@H](O)[C@@H](O)[C@H](O)[C@H]1CO` [Miglustat], for which the cell viability (compound concentration: 3 uM) worked out at 93.1%. On to `N[C@@H](CC(=O)O)C(=O)O` [L-Aspartic acid], for which the cell viability (compound concentration: 3 uM) worked out at 110%. In the case of `CC(C)(C)C(=O)OCOC(=O)[C@@H]1N2C(=O)[C@@H](/N=C/N3CCCCCC3)[C@H]2SC1(C)C` [Pivmecillinam hydrochloride], the cell viability (compound concentration: 3 uM) came out at 89.2%. On the same count and under the same terms, to `OCC(O)CN1CCN(c2ccccc2)CC1` (racemic) [Dropropizine (R,S)] belongs 96.2%.

With `CNc1ncnc2c1ncn2[C@@H]1O[C@H](CO)[C@@H](O)[C@H]1O` [N6-Methyladenosine], the cell viability (compound concentration: 3 uM) was 106%. Still for that read-out and setting: to `CNc1ncnc2c1ncn2[C@@H]1O[C@H](CO)[C@@H](O)[C@H]1O` [N6-methyladenosine] belongs 93.5%; to `CC1(C)CCC=[N+]1[O-]` [5,5-Dimethyl-1-pyrroline-N-oxide], 107%; to `CCn1cc(C(=O)O)c(=O)c2cc(F)c(N3CCNCC3)nc21` [Enoxacin], 103.5 ± 0.21%. As for `CCn1cc(C(=O)O)c(=O)c2cc(F)c(N3CCNCC3)nc21`, under “compound concentration: 3 uM”, the cell viability worked out at 110%. As to `CC(=O)OCC(=O)NCCCOc1cccc(CN2CCCCC2)c1` [Roxatidine acetate], the cell viability (compound concentration: 3 uM) amounted to 98.7%. With `CC(=O)OCC(=O)NCCCOc1cccc(CN2CCCCC2)c1` [Roxatidine Acetate HCl], the cell viability (compound concentration: 3 uM) was 121%. Take `CC(=O)OCC(=O)NCCCOc1cccc(CN2CCCCC2)c1`: the cell viability (compound concentration: 3 uM) was found to be 99.7%.

Regarding `C=CCc1ccc(O)c(OC)c1`, the cell viability (compound concentration: 3 uM) was found to be 110%. Consider `C=CCc1ccc(O)c(OC)c1` [Eugenol], for which the cell viability under setting [1] worked out at 95.5%. With `C=CC(N)CCC(=O)O` (racemic) [(±)-gamma-Vinyl GABA], the cell viability (compound concentration: 3 uM) stood at 121%. For the molecule `O=C(O)C1CCNCC1` [Isonipecotic acid], for the setting “compound concentration: 3 uM”, the cell viability worked out at 96.7%. `Nc1ncnc2c1ncn2C1CC(O)C(CO)O1` (stereo unspecified) [2'-Deoxyadenosine monohydrate]: under setting [1], the cell viability turned out to be 93.8%. With `Nc1ncnc2c1ncn2C1CC(O)C(CO)O1` (stereo unspecified) [2'-Deoxyadenosine hydrate], the cell viability under setting [1] stood at 96.2%. As to `CC1(C)CCC(NC(=O)[C@@H](N)CCC(=O)O)CC1`, the cell viability (compound concentration: 3 uM) came to 113%. Same read-out and setting: to `CCCc1ncc(C[n+]2ccccc2C)c(N)n1` [Amprolium hydrochloride] belongs 92.3%; to `CCCc1ncc(C[n+]2ccccc2C)c(N)n1`, 105%; to `O=C1NC(=O)C(c2ccccc2[N+](=O)[O-])=C1Nc1ccc(O)c(Cl)c1`, 120%. `CC(C)CSC[C@H]1O[C@@H](n2cnc3c(N)ncnc32)[C@H](O)[C@@H]1O` [5'-Isobutylthio-5'-deoxyadenosine]: under setting [1], the cell viability was 101%.

Consider `COc1ccc2c(C)cc(=O)oc2c1` [7-methoxy-4-methylcoumarin], for which the cell viability under setting [1] was 95.3%.

For `O=C1OC(c2ccc(O)cc2)(c2ccc(O)cc2)c2ccccc21`, under “compound concentration: 3 uM”, the cell viability was found to be 107%. As to `C[C@@H]1CN(CCCn2c3ccccc3c3ccccc32)C[C@H](C)N1` [Rimcazole], the cell viability (compound concentration: 3 uM) came to 93.2%. Regarding `O=C(O)CN(CCN(CC(=O)O)CC(=O)O)CC(=O)O.[Na+].[Na+].[Na+]`, the cell viability (compound concentration: 3 uM) came out at 112%.

In the case of `CC(C(=O)O)c1cccc(Oc2ccccc2)c1` (stereo unspecified), for the setting “compound concentration: 3 uM”, the cell viability was found to be 110%. In the case of `CC(C(=O)O)c1cccc(Oc2ccccc2)c1` (stereo unspecified) [Fenoprofen], under “compound concentration: 3 uM”, the cell viability turned out to be 93%. For `CC(C(=O)O)c1cccc(Oc2ccccc2)c1` (stereo unspecified) [Fenoprofen calcium salt dihydrate], the cell viability (compound concentration: 3 uM) is 125%. As for `Oc1ccc(C2CNCCc3c2cc(O)c(O)c3Cl)cc1` (stereo unspecified), the cell viability (compound concentration: 3 uM) amounted to 92.1%. Same read-out and setting: in the case of `Oc1ccc(C2CNCCc3c2cc(O)c(O)c3Cl)cc1` (stereo unspecified) [Fenoldopam] it was 104%; in that of `Oc1ccc(C2CNCCc3c2cc(O)c(O)c3Cl)cc1` (stereo unspecified) [Fenoldopam bromide], 106%; in that of `CCc1ccc(CCOc2ccc(CC3SC(=O)NC3=O)cc2)nc1` (stereo unspecified) [Pioglitazone], 110 ± 29%. On the same count and under the same terms, in the case of `CC[n+]1c(/C=C/C=C2/N(C)c3ccccc3C2(C)C)sc2ccccc21` it was 27.3%; in that of `O=C(O)c1ccccc1-c1c2cc(I)c(=O)c(I)c-2oc2c(I)c(O)c(I)cc12`, 119%.

`CC(C)(C)c1ccc(/C=C/C(=O)Nc2ccc3c(c2)OCCO3)cc1`: the cell viability (compound concentration: 3 uM) was 114%. `NC(N)=NCCCC(N)C(=O)O` (stereo not drawn) [D(-)-Arginine]: the cell viability under setting [1] worked out at 102%. Take `Cc1ccc(N(CC2=NCCN2)c2cccc(O)c2)cc1` [Phentolamine]: the cell viability (compound concentration: 3 uM) came to 106%.

In the case of `Cc1ccc(N(CC2=NCCN2)c2cccc(O)c2)cc1`, for the setting “compound concentration: 3 uM”, the cell viability is 104%. Same read-out and setting: to `Cc1ccc(N(CC2=NCCN2)c2cccc(O)c2)cc1` [Phentolamine mesylate] belongs 110%; to `Cc1ccc(N(CC2=NCCN2)c2cccc(O)c2)cc1` [Phentolamine hydrochloride], 104%.

As for `COC(=O)CCCC[C@@H]1SC[C@@H]2NC(=O)N[C@@H]21` [Biotin methyl ester], under setting [1], the cell viability stood at 94.5%.

Regarding `CC(C)NCC(O)c1ccc(O)c(O)c1` (racemic) [Isoproterenol (Rac)], where the note is “compound concentration: 3 uM”, the cell viability is 114%. On to `CC(C)NCC(O)c1ccc(O)c(O)c1` (racemic) [(±)-Isoproterenol hydrochloride], for which the cell viability (compound concentration: 3 uM) was 87.5%. As to `CO[C@H]1/C=C/O[C@@]2(C)Oc3c(C)c(O)c4c(O)c(c(/C=N/N5CCN(C)CC5)c(O)c4c3C2=O)NC(=O)/C(C)=C\C=C\[C@H](C)[C@H](O)[C@@H](C)[C@@H](O)[C@@H](C)[C@H](OC(C)=O)[C@@H]1C` [Rifampicin], the cell viability came to 91.2% under setting [1] and 97.6 ± 14% (compound concentration: 3 uM).

As for `CO[C@H]1/C=C/O[C@@]2(C)Oc3c(C)c(O)c4c(O)c(c(/C=N/N5CCN(C)CC5)c(O)c4c3C2=O)NC(=O)/C(C)=C\C=C\[C@H](C)[C@H](O)[C@@H](C)[C@@H](O)[C@@H](C)[C@H](OC(C)=O)[C@@H]1C`, where the note is “compound concentration: 3 uM”, the cell viability was determined as 101%.

Source of the values: the supplement of paper PMC3682954.
